From PMC2860244
Results are given in words; binding and its absence hold for the method and conditions named. Binding seen in cells or lysates may run through a third protein. These calls come from enrichment with a bait or labelling near it, and not all partners need be listed.

By UniProt entry, the sequences of proteins in these tests, tags left out.
UniProt P20263: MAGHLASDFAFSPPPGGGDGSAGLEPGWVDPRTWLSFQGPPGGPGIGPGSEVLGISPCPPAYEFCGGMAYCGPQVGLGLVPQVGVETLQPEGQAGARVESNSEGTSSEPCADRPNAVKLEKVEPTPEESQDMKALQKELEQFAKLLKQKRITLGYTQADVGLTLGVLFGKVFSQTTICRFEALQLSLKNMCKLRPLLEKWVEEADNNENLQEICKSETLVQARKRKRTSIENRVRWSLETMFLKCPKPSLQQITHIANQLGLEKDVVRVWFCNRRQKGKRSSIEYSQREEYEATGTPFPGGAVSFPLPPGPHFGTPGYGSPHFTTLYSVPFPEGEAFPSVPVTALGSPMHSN

B1: transcription intermediary factor 1-alpha (protein, UniProt Q64127-2 1-1017)
chain: MEVAVEKAAAAAAPAGGPAAAAPSGENEAESRQGPDSESGGEASRLNLLDTCAVCHQNIQSRVPKLLPCLHSFCQRCLPAPQRYLMLTAPALGSAETPPPAPAPAPAPGSPAGGPSPFATQVGVIRCPVCSQECAERHIIDNFFVKDTTEVPSSTVEKSNQVCTSCEDNAEANGFCVECVEWLCKTCIRAHQRVKFTKDHTVRQKEEVSPEAVGVTSQRPVFCPFHKKEQLKLYCETCDKLTCRDCQLLEHKEHRYQFIEEAFQNQKVIIDTLITKLMEKTKYIKYTGNQIQNRIIEINQNQKQVEQDIKVAIFTLMVEINKKGKALLHQLESLAKDHRMKLMQQQQEVAGLSKQLEHVMHFSKWAVSSGSSTALLYSKRLITYRLRHLLRARCDASPVTNTTIQFHCDPSFWAQNIINLGSLVIEDKESQPQMPKQNPVVEQSSQPPGGLPSNQLSKFPTQISLAQLRLQHIQQQHPPPRLINFQNHSPKPNGPVLPPYPQQLRYSPSQNVPRQTTIKPNPLQMAFLAQQAIKQWQISSVQAPPTTASSSSSTPSSPTITSAAGYDGKAFSSPMIDLSAPVGGSYNLPSLPDIDCSSTIMLDNIARKDTGVDHAQPRPPSNRTVQSPNSSVPSPGLAGPVTMTSVHPPIRSPSASSVGSRGSSGSSSKPAGADSTHKVPVVMLEPIRIKQENSGPPENYDFPVVIVKQESDEESRPQNTNYPRSILTSLLLNSSQSSASEETVLRSDAPDSTGDQPGLHQENSSNGKSEWSDASQKSPVHVGETRKEDDPNEDWCAVCQNGGELLCCEKCPKVFHLTCHVPTLTNFPSGEWICTFCRDLSKPEVDYDCDVPSHHSEKRKSEGLTKLTPIDKRKCERLLLFLYCHEMSLAFQDPVPLTVPDYYKIIKNPMDLSTIKKRLQEDYCMYTKPEDFVADFRLIFQNCAEFNEPDSEVANAGIKLESYFEELLKNLYPEKRFPKVEFRHEAEDCKFSDDSDDDFVQPRKKRLKSTEDRQLLK
B2: E3 ubiquitin-protein ligase TRIM33 (protein, UniProt Q99PP7 1-1142)
chain: MAENKGGGEAESGGGGSGSAPVTAGAAGPTAQEAEPPLAAVLVEEEEEEGGRAGAEGGAAGPDDGGVAAASSSSAPAASVPAASVGSAVPGGAASTPAPAAAPAPAPAPAPAPAPAPAPAPAPGSSSGPPLGPPASLLDTCAVCQQSLQSRREAEPKLLPCLHSFCLRCLPEPERQLSVPIPGGSNGDVQQVGVIRCPVCRQECRQIDLVDNYFVKDTSEAPSSSDEKSEQVCTSCEDNASAVGFCVECGEWLCKTCIEAHQRVKFTKDHLIRKKEDVSESVGTSGQRPVFCPVHKQEQLKLFCETCDRLTCRDCQLLEHKEHRYQFLEEAFQNQKGAIENLLAKLLEKKNYVHFAATQVQNRIKEVNETNKRVEQEIKVAIFTLINEINKKGKSLLQQLENVTKERQMKLLQQQNDITGLSRQVKHVMNFTNWAIASGSSTALLYSKRLITFQLRHILKARCDPVPAANGAIRFHCDPTFWAKNVVNLGNLVIESKPAPGYTPNVVVGQVPPGTNHISKTPGQINLAQLRLQHMQQQVYAQKHQQLQQMRLQQPPAPIPTTTATTQQHPRQAAPQMLQQQPPRLISVQTMQRGNMNCGAFQAHQMRLAQNAARIPGIPRHSAPQYSMMQPHLQRQHSNPGHAGPFPVVSAHNPINPTSPTTATMANANRGPTSPSVTAIELIPSVTNPENLPSLPDIPPIQLEDAGSSSLDNLLSRYISGSHLPPQPTSTMNPSPGPSALSPGSSGLSNSHTPVRPPSTSSTGSRGSCGSSGRTAEKSAHSFKSDQVKVKQEPGTEEEICSFSGAVKQEKTEDGRRSACMLSSPESSLTPPLSTNLHLESELDTLTGLENHVKTEPTDISESCKQSGLSNLVNGKSPIRNLMHRSARIGGDGNSKDDDPNEDWCAVCQNGGDLLCCEKCPKVFHLTCHVPTLLSFPSGDWICTFCRDIGKPEVEYDCDNMQHSKKGKTAQGLSPVDQRKCERLLLYLYCHELSIEFQEPVPVSIPNYYKIIKKPMDLSTVKKKLQKKHSQHYQIPDDFVADVRLIFKNCERFNEMMKVVQVYADTQEINLKGDSEVAKAGKAVALYFEDKLSEIYSDRTFTPLPEFEQDEDDGEVTEDSDEDFIQPRRKRLKSDERPVHIK
B3: Sal-like 1 (protein, UniProt Q9ER74 1-1322)
chain: MSRRKQAKPQHFQSDPEVASLPRRDGDTEKGQPSRPTKSKDAHVCGRCCAEFFELSDLLLHKKSCTKNQLVLIVNESPASPAKTFPPGPSLNDPDDQMKDAANKADQEDCSDLSEPKGLDREESMEVEVPVATTTTTTTGGSGGSGGSTLSGVTNITTPSCHSGCSSGTSAITTSLPQLGDLTTLGNFSVINSNVIIENLQSTKVAVAQFSQEARCGGASGGKLLISTLMEQLLALQQQQIHQLQLIEQIRHQILLLASQSADLPAAPSIPSQGTLRTSANPLTTLSSHLSQQLAVAAGLAQSLASQSANISGVKQLPHVQLPQSSSGTSIVPPSGGTSPNMSIVTAAVPTPSSEKVASNAGASHVSSPAVSASSSPAFAISSLLSPESNPLLPQPTPANAVFPTPLPNIATTAEDLNSLSALAQQRKSKPPNVTAFEAKSTSDEAFFKHKCRFCAKVFGSDSALQIHLRSHTGERPFKCNICGNRFSTKGNLKVHFQRHKEKYPHIQMNPYPVPEHLDNVPTSTGIPYGMSIPSEKPVTSWLDTKPVLPTLTTSVGLPLPPTLPSLTPFIKTEEPAPIPISHSAASPQGSVKSDSGAPDLATRNPSGVPEEVEGSAVPPFGGKGEESNMASSAVPTAGNSTLNSPVADGGPGGTTFTNPLLPLMSEQFKAKFPFGGLLDSAQASETSKLQQLVENIDKKATDPNECIICHRVLSCQSALKMHYRTHTGERPFKCKICGRAFTTKGNLKTHYSVHRAMPPLRVQHSCPICQKKFTNAVVLQQHIRMHMGGQIPNTPVPDNYPESMESDTGSFDEKNFDDLDNFSDENMEECPEGSIPDTPKSADASQDSLSSSPLPLEMSSIAALENQMKMINAGLAEQLQASLKSVENGSMEGDVLTNDSSSVGGDMESQSAGSPAISESTSSMQALSPSNSTQEFHKSPGMEEKPQRVGPGEFANGLSPTPVNGGALDLTSSHAEKIIKEDSLGILFPFRDRGKFKNTACDICGKTFACQSALDIHYRSHTKERPFICTVCNRGFSTKGNLKQHMLTHQMRDLPSQLFEPSSNLGPNQNSAVIPANSLSSLIKTEVNGFVHVSPQDSKDAPTSHVPQGPLSSSATSPVLLPALPRRTPKQHYCNTCGKTFSSSSALQIHERTHTGEKPFACTICGRAFTTKGNLKVHMGTHMWNSTPARRGRRLSVDGPMTFLGGNPVKFPEMFQKDLAARSGSGDPSSFWNQYTAALSNGLAMKANEISVIQNGGIPPIPGSLGSGSSPISGLTGNVEKLGNSEPSAPLAGLEKMASSENGTNFRFTRFVEDSKEIVTS
B4: Nanog (protein, UniProt Q80Z64 1-305)
chain: MSVGLPGPHSLPSSEEASNSGNASSMPAVFHPENYSCLQGSATEMLCTEAASPRPSSEDLPLQGSPDSSTSPKQKLSSPEADKGPEEEENKVLARKQKMRTVFSQAQLCALKDRFQKQKYLSLQQMQELSSILNLSYKQVKTWFQNQRMKCKRWQKNQWLKTSNGLIQKGSAPVEYPSIHCSYPQGYLVNASGSLSMWGSQTWTNPTWSSQTWTNPTWNNQTWTNPTWSSQAWTAQSWNGQPWNAAPLHNFGEDFLQPYVQLQQNFSASDLEVNLEATRESHAHFSTPQALELFLNYSVTPPGEI
B5: Zfp281 (protein, UniProt Q99LI5 1-893)
chain: MKIGSGFLSGGGGPSSSGGSGSGGSSGSASGGSGGGRRAEMEPTFPQSMVMFNHRLPPVTSFTRPAGTAAPPPQCVLSSSTSAAPAAEPPPPPAPDMTFKKEPAASAAAFPSQRTSWGFLQSLVSIKQEKPADPEEQPSHHHHHHHHYGGLFAGAEERSPGLGGGEGGSHGVIQDLSLLHQHAQQQPAQHHRDVLLSSGSRTDEHGNQEPKQDANVKKAKRPKPESQGIKAKRKPSASSKPLVGEGEGAVLSPSQKPHICDHCSAAFRSSYHLRRHVLIHTGERPFQCSQCSMGFIQKYLLQRHEKIHSREKPFGCDQCSMKFIQKYHMERHKRTHSGEKPYKCDTCQQYFSRTDRLLKHRRTCGEAIAKGAASAEPGSSNHNSMGNLAVLSQGNTSSSRRKSKSKSIAIENKEHKTGKTNESQMSNNINMQSYSVEMPTVSTSGSIIGTGIDELQKRVPKLIFKKGSRKNADKSYLNFVSPLPDVVGQKSLSGKPGGSLGIVSNNSVETISLLQSTSGKQGPISSNYDDAMQFSKKRRYLPTASSNSAFSINVGHMVSQQSVIQSAGVSVLDNEAPLSLIDSSALNAEIKSCHDKSGIPDEVLQSILDQYSGKSETQKEDPFNLTEPRVDLHTSGEHSELVQEENLSPGTQTPSNDKTSMLQEYSKYLQQAFEKSTNAGFTLGHGFQFVSLSSPLHNHTLFPEKQIYTTSPLECGFGQSVTSVLPSSLPKPPFGMLFGSQPGLYLSALDATHQQLTPSQELDDLIDSQKNLETSSAFQSSSQKLTSQKEQQKNLESSTSFQIPSQELASQIDPQKDIEPRTTYQIENFAQAFGSQFKSGSRVPMTFITNSNGEVDHRVRTSVSDFSGYTNMMSDVSEPCSTRVKTPTSQSYR
B6: RYBP (protein, UniProt Q8CCI5 1-228)
chain: MTMGDKKSPTRPKRQAKPAADEGFWDCSVCTFRNSAEAFKCSICDVRKGTSTRKPRINSQLVAQQVAQQYATPPPPKKEKKEKVEKPDKEKPEKDKDISPSVTKKNTNKKTKPKSDILKDPPSEANSIQSANATTKTSETNHTSRPRLKNVDRSTAQQLAVTVGNVTVIITDFKEKTRSSSTSSSTVTSSAGSEQQNQSSSGSESTDKGSSRSSTPKGDMSAVNDESF
B7: Dax1 (protein, UniProt Q61066 1-472)
chain: MAGEDHPWQGSILYNLLMSAKQKHASQEEREVRLGAQCWGCACGAQPVLGGERLSGGQARSLLYRCCFCGENHPRQGGILYSMLTNARQPSVATQAPRARFGAPCWGCACGSAEPLVGREGLPAGQAPSLLYRCCFCGEEHPRQGSILYSLLTSAQQTHVSREAPEAHRRGEWWQLSYCTQSVGGPEGLQSTQAMAFLYRSYVCGEEQPQQISVASGTPVSADQTPATPQEQPRAPWWDASPGVQRLITLKDPQVVCEAASAGLLKTLRFVKYLPCFQILPLDQQLVLVRSCWAPLLMLELAQDHLHFEMMEIPETNTTQEMLTTRRQETEGPEPAEPQATEQPQMVSAEAGHLLPAAAVQAIKSFFFKCWSLNIDTKEYAYLKGTVLFNPDLPGLQCVKYIEGLQWRTQQILTEHIRMMQREYQIRSAELNSALFLLRFINSDVVTELFFRPIIGAVSMDDMMLEMLCAKL

Target: Oct4-FTAP fusion protein (mouse) (UniProt P20263)
Assay: affinity purification with mass spectrometry; one-step purification on anti-FLAG M2 Dynal beads from whole-cell extracts of Oct4-FTAP ESCs against unmodified control cells (AB2.2); 150 mM NaCl, 0.1% NP-40, 90 min, 4°C; elution with AcTEV protease; three independent purifications; LC-MS/MS

Row | Binder | binding
1 | B1 | binds
2 | B2 | binds
3 | B3 | binds
4 | B4 | binds
5 | B5 | binds
6 | B6 | binds
7 | B7 | binds
